Results on two substances are retold here after publication PMC9834407.

Protein sequences, listed by entry. Tags and fused reporters are not part of them. Lines headed by an entry give the natural chain unless they say otherwise; changes in a name come on top.
UniProt P08670: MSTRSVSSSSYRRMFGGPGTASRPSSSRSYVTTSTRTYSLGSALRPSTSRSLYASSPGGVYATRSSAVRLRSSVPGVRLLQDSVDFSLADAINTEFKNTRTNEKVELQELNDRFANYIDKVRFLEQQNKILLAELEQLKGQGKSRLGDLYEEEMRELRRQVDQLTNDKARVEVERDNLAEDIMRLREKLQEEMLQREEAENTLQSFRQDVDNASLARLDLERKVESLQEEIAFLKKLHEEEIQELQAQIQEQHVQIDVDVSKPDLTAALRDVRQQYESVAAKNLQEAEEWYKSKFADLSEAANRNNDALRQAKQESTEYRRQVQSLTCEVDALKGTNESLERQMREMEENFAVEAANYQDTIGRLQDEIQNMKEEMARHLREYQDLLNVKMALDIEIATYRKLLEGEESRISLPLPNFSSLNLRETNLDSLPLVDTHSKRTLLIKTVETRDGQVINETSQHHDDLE
UniProt P05556: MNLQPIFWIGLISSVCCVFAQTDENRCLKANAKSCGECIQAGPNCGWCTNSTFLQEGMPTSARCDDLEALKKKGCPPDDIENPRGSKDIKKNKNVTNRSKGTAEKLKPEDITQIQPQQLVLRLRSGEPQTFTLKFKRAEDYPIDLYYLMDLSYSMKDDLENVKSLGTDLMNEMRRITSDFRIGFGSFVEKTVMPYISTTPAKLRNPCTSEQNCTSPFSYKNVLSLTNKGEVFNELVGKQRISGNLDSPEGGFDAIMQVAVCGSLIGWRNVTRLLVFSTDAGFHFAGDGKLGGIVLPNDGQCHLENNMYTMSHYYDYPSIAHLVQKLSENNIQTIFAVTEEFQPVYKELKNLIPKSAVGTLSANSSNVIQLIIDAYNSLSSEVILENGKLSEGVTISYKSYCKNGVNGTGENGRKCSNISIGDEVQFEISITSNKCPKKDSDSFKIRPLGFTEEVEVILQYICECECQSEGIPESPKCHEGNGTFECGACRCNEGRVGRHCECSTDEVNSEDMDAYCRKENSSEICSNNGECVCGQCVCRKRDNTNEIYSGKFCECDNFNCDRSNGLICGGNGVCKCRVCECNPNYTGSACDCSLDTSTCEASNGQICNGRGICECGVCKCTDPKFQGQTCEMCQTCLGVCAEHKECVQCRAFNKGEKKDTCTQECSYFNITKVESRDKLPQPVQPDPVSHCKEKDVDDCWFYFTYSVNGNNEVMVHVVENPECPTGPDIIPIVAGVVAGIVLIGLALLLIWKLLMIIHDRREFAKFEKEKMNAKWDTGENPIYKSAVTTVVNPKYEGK
UniProt A2A2Y4: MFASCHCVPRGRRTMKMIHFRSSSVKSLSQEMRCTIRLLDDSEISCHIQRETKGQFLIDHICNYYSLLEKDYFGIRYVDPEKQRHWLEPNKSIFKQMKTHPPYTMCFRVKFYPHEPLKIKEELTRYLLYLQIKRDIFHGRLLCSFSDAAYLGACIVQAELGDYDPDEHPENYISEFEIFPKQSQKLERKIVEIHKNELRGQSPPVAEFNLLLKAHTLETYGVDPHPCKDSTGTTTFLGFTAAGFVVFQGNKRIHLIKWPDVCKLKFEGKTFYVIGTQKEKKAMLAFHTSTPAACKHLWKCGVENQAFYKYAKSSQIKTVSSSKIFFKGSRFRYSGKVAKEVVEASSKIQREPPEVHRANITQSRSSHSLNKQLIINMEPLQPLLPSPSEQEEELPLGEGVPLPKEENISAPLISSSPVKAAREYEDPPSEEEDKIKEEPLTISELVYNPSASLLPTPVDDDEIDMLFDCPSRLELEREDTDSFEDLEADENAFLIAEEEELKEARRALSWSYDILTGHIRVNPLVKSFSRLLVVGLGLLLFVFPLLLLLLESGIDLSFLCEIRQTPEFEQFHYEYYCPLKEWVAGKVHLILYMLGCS

For assay [1], the target named is vimentin, endogenous (human (endogenous in T47D, MDA-MB-231 and MCF10A)) (UniProt P08670). Kind of assay: co-IP; lysates of T47D and MDA-MB-231 cells with FRMD3 overexpression; antibody on Protein A/G magnetic beads, 4 °C overnight, Western blot; which partner was precipitated is not told. In general terms: In western blotting, separated proteins are transferred to a membrane and probed.

Assay [2] concerns the target β1-integrin (UniProt P05556). In words: co-IP; endogenous proteins in MCF10A lysate; antibody on Protein A/G magnetic beads, 4 °C overnight, Western blot; isotype-matched IgG as negative control.
For assay [3], the target named is vimentin, endogenous (human (endogenous in T47D, MDA-MB-231 and MCF10A)) (UniProt P08670). The assay is described as above.

These are yes or no findings as the source states them, for the method shown. Binding seen in cells or lysates may run through a third protein. Some entries that bind do so weakly or less than the wild type.

As to “FERM domain-containing protein 3 (FRMD3), Flag-tagged, from pcflag-FRMD3 (from UniProt A2A2Y4 1-597)”, in assay [1], the binding entry is on record as “binds”. “FRMD3, endogenous (from UniProt A2A2Y4 1-597)”: the values for the binding entry in assay [2] and in assay [3] were “no binding” and “binds”, respectively.
